The other results are listed elsewhere or left out.

The experiment has as its target T1, OsSMF1 (Oryza sativa, UniProt Q6ZLB0 1-436).
T1 sequence: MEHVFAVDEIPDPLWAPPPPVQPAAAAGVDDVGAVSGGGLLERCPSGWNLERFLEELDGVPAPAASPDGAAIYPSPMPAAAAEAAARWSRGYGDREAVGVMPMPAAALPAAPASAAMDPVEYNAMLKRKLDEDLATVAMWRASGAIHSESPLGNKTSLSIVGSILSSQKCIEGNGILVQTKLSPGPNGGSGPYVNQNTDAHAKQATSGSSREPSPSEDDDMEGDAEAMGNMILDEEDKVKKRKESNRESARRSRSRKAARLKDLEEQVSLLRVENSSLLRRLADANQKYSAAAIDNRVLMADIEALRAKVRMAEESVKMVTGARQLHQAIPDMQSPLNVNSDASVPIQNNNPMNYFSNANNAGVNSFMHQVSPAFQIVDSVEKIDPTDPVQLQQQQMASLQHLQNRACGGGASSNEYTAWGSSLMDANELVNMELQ
The experiment in a line: protein-binding microarray (RPBM); PBS, 2% BSA, 51.3 ng/ul salmon testes DNA, 50 uM zinc acetate, 200 nM TF, 25 C, 1 h; high values mean tight binding. The conditions noted are these: protein: recombinant; tags: N-terminal polyhistidine and DsRed monomer fusion (pET32a); chain copies: 2; label: CyDye5-dUTP incorporated in the synthesized complementary strand; 3' TTTTT single-stranded linker to array surface; dsDNA, one strand shown. Summed up:
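For the binding signal, per-feature fluorescence intensity was read in arbitrary units on an Axon 4000B scanner. Before scanning, a 2% BSA-blocked custom Agilent array made double-stranded with Cy5-dUTP was washed after 1 h at 25 °C with 200 nM protein and 50 µM zinc acetate. The proteins were Ni–NTA-purified transcription factors with N-terminal polyhistidine and DsRed fusions, expressed in E. coli BL21-CodonPlus.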
Consider “ATTAATATATATATAAATGTGGGTAATGCTAGAAAGTCTTCGGAGTCACCTAGTGCAG”, for which the binding signal is 21300 fluorescence intensity (a.u.).
Consider “TTTGAAAGACAAGTCATCCAAAGCTGACGAAACACTATATCGGAGTCACCTAGTGCAG”, for which the binding signal was 3310 fluorescence intensity (a.u.).
On to “TTTGACCGTGTCTTACCTACGTGGAGGATAACATGGAATTCGGAGTCACCTAGTGCAG”, for which the binding signal is 5930 fluorescence intensity (a.u.).
Consider “CATCCGCACCCGTACATTATCCGCACCCGCTCCAAATCTGCGGAGTCACCTAGTGCAG”, for which the binding signal is 3370 fluorescence intensity (a.u.).
As to “AAGGCCCAGTAAAACCACTAGTGGAGCAGCATCAGCATCACGGAGTCACCTAGTGCAG”, the binding signal was 3180 fluorescence intensity (a.u.).
For the sequence “TTCCCCGCACATCGAATCCCACACTCACCGACGCGTGGGCCGGAGTCACCTAGTGCAG”, the binding signal was 4520 fluorescence intensity (a.u.).
Consider “ATGAACGTGCGTTGGTGTGTGCGTGGACAAATACCTAACTCGGAGTCACCTAGTGCAG”, for which the binding signal was 6730 fluorescence intensity (a.u.).
The value for “ATCAAATGATTCAGTACCTATTGCTACTATCTTCATTCCACGGAGTCACCTAGTGCAG” was 3760 fluorescence intensity (a.u.).
Consider “CTTCACACCACACATTCTAAGACACGTACGCATGCCTGTACGGAGTCACCTAGTGCAG”, for which the binding signal was 7660 fluorescence intensity (a.u.).
For “GGTAGCCTAGCTACACAAGAAAGAGAAGGAGGAGGAGAAGCGGAGTCACCTAGTGCAG”, the binding signal is 29800 fluorescence intensity (a.u.).
As to “TGGCAGACGGGCAGTCCCATAAATTAATGTATCACTGCACCGGAGTCACCTAGTGCAG”, the binding signal was 7040 fluorescence intensity (a.u.).
For the sequence “GATTGCTAACTTGCTTCCTCCGTCCGCGGCCACCACTTTCCGGAGTCACCTAGTGCAG”, the binding signal is 27000 fluorescence intensity (a.u.).
The value for “GTTGTGTATGGGCACCAACACCTTGTCATTGGCACTTTGCCGGAGTCACCTAGTGCAG” was 3690 fluorescence intensity (a.u.); that for “CCCAGTTTGGAGTAACGCCCACGTCACGCTCGCGGCTCACCGGAGTCACCTAGTGCAG” was 20000 fluorescence intensity (a.u.).
“GACGCCGACGTCGCGCCACCGTGGCGCGGCACCGACACCGCGGAGTCACCTAGTGCAG”: the binding signal is 3730 fluorescence intensity (a.u.).
As to “GCAAGCAGTTCAGTGGATCACATTACACGTCGCCCTGATTCGGAGTCACCTAGTGCAG”, the binding signal was 4460 fluorescence intensity (a.u.).
In the case of “TCAGGAGGAAGCCTACGGGCCCTCGCACCGTCAGCATCACCGGAGTCACCTAGTGCAG”, the binding signal is 7490 fluorescence intensity (a.u.).
Take “TGTGTGTGTATATATATGTAGCCTGTTCGCACATCATCTTCGGAGTCACCTAGTGCAG”: the binding signal is 3910 fluorescence intensity (a.u.).
For the sequence “CCCAGACCAACCAACCGGTCGCCGAAAGCCCACCACACACCGGAGTCACCTAGTGCAG”, the binding signal is 3420 fluorescence intensity (a.u.).
The result for “TCGCTCACCACTCCGACTCCGACGCCACCTCCTGCAGCGGCGGAGTCACCTAGTGCAG” reads 3180 fluorescence intensity (a.u.).
Take “CCCGCGCCGCGGCGGATCGATGGAGCTGTTCGAGCGCGCGCGGAGTCACCTAGTGCAG”: the binding signal was 3160 fluorescence intensity (a.u.).
Consider “CGTCTGCCATGTATGCAAATACGACAGGCATTCTTGGGGTCGGAGTCACCTAGTGCAG”, for which the binding signal is 4260 fluorescence intensity (a.u.).
With “GTCTTTAAGCTGGCTACGTCATCGCACAATTTGATCGTTTCGGAGTCACCTAGTGCAG”, the binding signal is 11000 fluorescence intensity (a.u.).
Take “ACTGCTTCGTCGTAACCCTTAGCGAGTAACGTGGCATATTCGGAGTCACCTAGTGCAG”: the binding signal was 3790 fluorescence intensity (a.u.).
As for “GTCCCCAACTCTGACTGTCCCCACGTTTTCAGGCTGTTTGCGGAGTCACCTAGTGCAG”, the binding signal was 4300 fluorescence intensity (a.u.).
As for “AAATAATTTATGAATAAAACTTTTATCTACGTGTTCTTAACGGAGTCACCTAGTGCAG”, the binding signal is 4110 fluorescence intensity (a.u.).
With “TTGTCCTGCGTTAACCAAAGAGCAAGATATCTGACGGAGGCGGAGTCACCTAGTGCAG”, the binding signal is 3820 fluorescence intensity (a.u.).
As to “TCCTCCTAACCTCCAGCTATAAAACCAGCTCGCCCCAGATCGGAGTCACCTAGTGCAG”, the binding signal was 3360 fluorescence intensity (a.u.).
As to “CGATTATTCCTGATGTTGCAATTGCCATCCTCCGTCACCCCGGAGTCACCTAGTGCAG”, the binding signal was 3380 fluorescence intensity (a.u.).
For “TATACTGCCTTGTTCTATAAATCACCGCAGAACACGTGTTCGGAGTCACCTAGTGCAG”, the binding signal is 4250 fluorescence intensity (a.u.).
The result for “GTTGGAGACCCTCTATGCTATTTGCTTCTTCCTCAGTTTGCGGAGTCACCTAGTGCAG” reads 3840 fluorescence intensity (a.u.); that for “CGGCGGCTTCTTGTTGGTGACGCCGCACGGCATGGTTGATCGGAGTCACCTAGTGCAG”, 5370 fluorescence intensity (a.u.).
The result for “ATTCAAGATTGGATGAAGGATGACACCTCGACGTAGATATCGGAGTCACCTAGTGCAG” reads 4000 fluorescence intensity (a.u.); that for “GTTACAGCATCATCATTTACGTTGTGACTCGTGTAGTGGGCGGAGTCACCTAGTGCAG”, 4670 fluorescence intensity (a.u.).
The value for “TAGTTAATAAAAGTCAAAATGAAGTCACAATTTGCCACGTCGGAGTCACCTAGTGCAG” was 8180 fluorescence intensity (a.u.); that for “AATATTGGTAGTGCCAAAACCTAGGCAAGTTTTGGTACTACGGAGTCACCTAGTGCAG” was 3230 fluorescence intensity (a.u.); that for “AGATTAAGGAGTCCTCCATCTATATAATCCAATCTATCTCCGGAGTCACCTAGTGCAG” was 21400 fluorescence intensity (a.u.).
Turning to “CGCAGTTTACGCAAGGGCACGCTGCTGCTGACACAGTAGGCGGAGTCACCTAGTGCAG”, the binding signal is 5050 fluorescence intensity (a.u.).
Consider “AAGAGGAGGATTACTCGCCACGCGAAGCGGAGCTCGCCGCCGGAGTCACCTAGTGCAG”, for which the binding signal was 4090 fluorescence intensity (a.u.).
Take “CCTCTCTGTGACTGCCGAGGCTTGGACTGTGTTCTCGCATCGGAGTCACCTAGTGCAG”: the binding signal is 24000 fluorescence intensity (a.u.).
“TCTTTCGTCGCAATGCCACGCCATCATCGATCCCTTTCCTCGGAGTCACCTAGTGCAG”: the binding signal was 14800 fluorescence intensity (a.u.).
The result for “GAGTTCTTTTCTCATGCATCAGCAGAGAAAGCACTCCAGACGGAGTCACCTAGTGCAG” reads 3380 fluorescence intensity (a.u.).

(Values after article PMC7819943, “Rice protein-binding microarrays: a tool to detect cis-acting elements near promoter regions in rice”.)
